PubChem BioAssay AID1159578, Peter MacCallum Cancer Centre – 2015
In all, the deposit lists about 18,000 reagents; shown is an unselected part. Over the whole deposit, about 1,030 (5.7%) were called active. 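Inactive calls also include pools with fewer than 3300 nuclei, whose migration was not assessed.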 The raw values are shown without normalisation.

Test: 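siRNA pools altering how lymphatic endothelial cells close a scratch wound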 (primary screen)
Cell system: human lymphatic endothelial cells
Reagent: siRNA pool against human genes, 40 nM
Timing: 48 h after transfection
Measured: 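Cells stained with dye and imaged after a scratch; covered wound area and nuclei counted, duplicates averaged, migration set against mock wells and turned into a robust z-score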
Reading the numbers: migration robust z-score: higher = faster migration into the scratch; migration relative to mock: higher = more scratch area covered than mock; nuclei per well: higher = more cells in the well
Active means: 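Migration changed when robust z exceeds 2 or falls below -2 and mean nuclei number is at least 3300; otherwise not called changed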
Meaning of the calls: active = migration changed; inactive = no migration change, or too few cells

| Target gene | migration robust z-score | migration class with cell-count check | migration relative to mock | nuclei per well, duplicate mean | call |
| --- | --- | --- | --- | --- | --- |
| MLLT10 | 1.14 | migration z between -2 and 2; enough cells | 1.02 | 6427 | inactive |
| SERPINI2 | -1.5 | migration z between -2 and 2; enough cells | 0.52 | 5078 | inactive |
| FAR1 | -0.47 | migration z between -2 and 2; enough cells | 0.76 | 5178 | inactive |
| MYL2 | -0.51 | migration z between -2 and 2; enough cells | 0.75 | 6657 | inactive |
| MAGEA9B | -0.18 | migration z between -2 and 2; enough cells | 0.84 | 5684 | inactive |
| SYBU | 1.43 | migration z between -2 and 2; enough cells | 1.25 | 5848 | inactive |
| PLAC4 | 0.79 | migration z between -2 and 2; enough cells | 1.09 | 4394 | inactive |
| RHOBTB3 | 3.13 | migration z above 2; enough cells | 1.41 | 5012 | active |
| PRIMPOL | 0.01 | migration z between -2 and 2; enough cells | 0.88 | 5949 | inactive |
| TRIM39 | 0.83 | migration z between -2 and 2; enough cells | 0.96 | 5458 | inactive |
| CYBA | -0.96 | migration z between -2 and 2; enough cells | 0.62 | 6150 | inactive |
| SEMA6B | -0.13 | migration z between -2 and 2; enough cells | 0.86 | 5459 | inactive |
| SLF1 | 1.34 | migration z between -2 and 2; enough cells | 1.23 | 5688 | inactive |
| NBPF1 | -0.64 | migration z between -2 and 2; enough cells | 0.72 | 5000 | inactive |
| CYP1B1 | 0.32 | migration z between -2 and 2; enough cells | 0.96 | 6549 | inactive |
| TRABD | -0.46 | migration z between -2 and 2; enough cells | 0.77 | 6663 | inactive |
| EWSR1 | 1.35 | migration z between -2 and 2; enough cells | 1.06 | 3956 | inactive |
| MAP3K8 | -2.16 | migration z below -2; enough cells | 0.39 | 4724 | active |
| TFIP11 | -1.78 | migration z between -2 and 2; enough cells | 0.42 | 5572 | inactive |
| NEK7 | 1.48 | migration z between -2 and 2; enough cells | 1.09 | 6301 | inactive |
| OR2L3 | -0.62 | migration z between -2 and 2; enough cells | 0.72 | 5784 | inactive |
| SCN5A | -0.26 | migration z between -2 and 2; enough cells | 0.76 | 5351 | inactive |
| TMPRSS4 | 0.8 | migration z between -2 and 2; enough cells | 0.96 | 5002 | inactive |
| CIPC | -0.18 | migration z between -2 and 2; enough cells | 0.84 | 5676 | inactive |
| SLC25A34 | -2.38 | migration z below -2; enough cells | 0.27 | 4254 | active |
| MYBL2 | 2.8 | migration z above 2; enough cells | 1.34 | 5980 | active |
| PARD6B | -0.85 | migration z between -2 and 2; enough cells | 0.66 | 4486 | inactive |
| SLC22A10 | -1.23 | migration z between -2 and 2; enough cells | 0.57 | 6759 | inactive |
| SNRNP35 | 0.14 | migration z between -2 and 2; enough cells | 0.92 | 5849 | inactive |
| TEX10 | 0.52 | migration z between -2 and 2; enough cells | 1.02 | 5013 | inactive |
| MAPKAPK3 | -1.27 | migration z between -2 and 2; enough cells | 0.56 | 4414 | inactive |
| ARHGAP18 | -0.39 | migration z between -2 and 2; enough cells | 0.78 | 5530 | inactive |
| CD300A | -0.54 | migration z between -2 and 2; enough cells | 0.74 | 5476 | inactive |
| URGCP | -0.55 | migration z between -2 and 2; enough cells | 0.74 | 5987 | inactive |
| ATP5PD | 0.68 | migration z between -2 and 2; enough cells | 0.94 | 6364 | inactive |
| TMPO | -1.21 | migration z between -2 and 2; enough cells | 0.56 | 5692 | inactive |
| DMBX1 | 0.25 | migration z between -2 and 2; enough cells | 0.94 | 5233 | inactive |
| NTPCR | 0.42 | migration z between -2 and 2; enough cells | 1 | 5496 | inactive |
| MCTS1 | -1.19 | migration z between -2 and 2; enough cells | 0.58 | 5482 | inactive |
| RILPL1 | 1.42 | migration z between -2 and 2; enough cells | 1.25 | 6535 | inactive |
| TMSB4Y | 0.66 | migration z between -2 and 2; enough cells | 1.06 | 5799 | inactive |
| HEBP2 | -0.26 | migration z between -2 and 2; enough cells | 0.82 | 5706 | inactive |
| RSPO3 | -1.55 | migration z between -2 and 2; enough cells | 0.48 | 6325 | inactive |
| CCDC148 | -0.96 | migration z between -2 and 2; enough cells | 0.64 | 5808 | inactive |
| HEXIM1 | 0.4 | migration z between -2 and 2; enough cells | 0.98 | 6040 | inactive |
| WDR91 | -0.08 | migration z between -2 and 2; enough cells | 0.86 | 6191 | inactive |
| MZB1 | 1.66 | migration z between -2 and 2; enough cells | 1.31 | 7036 | inactive |
| PREX2 | 0.32 | migration z between -2 and 2; enough cells | 0.97 | 6722 | inactive |
| OR13C3 | -0.68 | migration z between -2 and 2; enough cells | 0.71 | 5998 | inactive |
| KCND3 | -0.99 | migration z between -2 and 2; enough cells | 0.62 | 6350 | inactive |
| DISP2 | 0.69 | migration z between -2 and 2; enough cells | 1.06 | 5875 | inactive |
| ZNF511 | -0.05 | migration z between -2 and 2; enough cells | 0.87 | 5674 | inactive |
| MIPOL1 | -0.98 | migration z between -2 and 2; enough cells | 0.63 | 4900 | inactive |
| RAB33A | -0.52 | migration z between -2 and 2; enough cells | 0.75 | 6712 | inactive |
| MRPL13 | 0.16 | migration z between -2 and 2; enough cells | 0.93 | 4761 | inactive |
| MT2A | -1.5 | migration z between -2 and 2; enough cells | 0.5 | 5590 | inactive |
| PDSS2 | -0.17 | migration z between -2 and 2; enough cells | 0.84 | 5686 | inactive |

Active calls, of those listed so far:
| Target gene | migration robust z-score | migration class with cell-count check | migration relative to mock | nuclei per well, duplicate mean | call |
| --- | --- | --- | --- | --- | --- |
| RHOBTB3 | 3.13 | migration z above 2; enough cells | 1.41 | 5012 | active |
| MAP3K8 | -2.16 | migration z below -2; enough cells | 0.39 | 4724 | active |
| SLC25A34 | -2.38 | migration z below -2; enough cells | 0.27 | 4254 | active |
| MYBL2 | 2.8 | migration z above 2; enough cells | 1.34 | 5980 | active |
